The other results are listed elsewhere or left out.
system: T1, CTL2-GFP (C. trachomatis L2/434/Bu, GFP-expressing); design: species or system HeLa; Intracellular C. trachomatis growth in HeLa cells, bulk GFP fluorescence relative to DMSO; details: bulk GFP, single well; 28.5 h, 10 µM; inhibitor
T1 construct: L2/434/Bu, GFP-expressing

Structure (SMILES) | % of control remaining [%]
Fc1cc(Br)c(CNCc2ncc[nH]2)c(N2CCCCC2)c1F [CBK304243] | 16.7953
COc1cc(C(=O)Nc2ccc(N3CCN(C)CC3)cc2)ccc1OCc1ccc(Cl)cc1 [CBK266116] | 100.887
Cc1nn(C)cc1CNC(=O)C1C2CCC(C2)C1C(=O)O (stereo not shown) [CBK286875] | 120.148
CCc1nc2c(OCc3ccccc3)cccn2c1N(Cc1ccc(OC)cc1)C(C)=O [CBK147887] | 122.641
Cn1cc(I)c(C(=O)NNC(=S)Nc2ccc(S(N)(=O)=O)cc2)n1 [CBK267066] | 189.048
CC(=O)NC(Cc1c[nH]c2ccccc12)/C(C)=N/O (stereo not shown) [CBK022711] | 120.72
O=C(N/N=C/c1cc2c(cc1Br)OCO2)c1ccc(CN2CCOCC2)cc1 [CBK262721] | 110.159
O=C(NC1CCCCC1)c1ccc(-n2ccnc2)c(-n2cccc2)c1 [CBK285365] | 106.327
Nc1c(N(CCO)C(=O)C2CCCC2)c(=O)[nH]c(=O)n1Cc1ccccc1 [CBK297490] | 133.047
CC(C)CNC(=O)N1CCN(C2CCN(C)CC2)CC1 [CBK155902] | 137.435
O=P(O)(CCc1ccccc1)CN1CCOCC1 [CBK262305] | 117.195
CCCC/C=C/c1ccc(Nc2ccc3c(c2)OCCO3)nc1 [CBK037774] | 174.511
Nc1ncc(-c2ccc(OC(F)(F)F)cc2)c2cccnc12 [CBK067594] | 108.367
CC1=CC(=O)Nc2ccccc2S1 [CBK028872] | 94.7029
NCCn1cc(-c2cccc(F)c2)c(C2CCOCC2)n1 [CBK281696] | 129.002
COc1cccc(Oc2nccnc2-c2ccc3c(c2)OCO3)c1 [CBK106704] | 123.021
Fc1ccc(-c2[nH]c3ncccc3c2CN2CCOCC2)cc1 [CBK285310] | 114.447
CC/C(=N\C(N)=O)c1ccccc1 [CBK009865] | 141.054
CC(C)S(=O)(=O)n1c(=O)n(Cc2ccc(S(C)(=O)=O)cc2)c2ccccc21 [CBK106529] | 129.707
COc1ccc(C(C)C)cc1-c1cn2ccnc2c(N(C)CCN(C)C)n1 [CBK066368] | 202.982

Structure (SMILES) | % of control remaining [%]
O=C(O)c1cccc(-c2ccc(/C=C\c3nc(O)c([N+](=O)[O-])c(=O)[nH]3)o2)c1 [CBK267209] | 84.138
Cc1cccc([C@@H]2CN(Cc3ccccc3)C[C@]23CCCCC(=O)N3)n1 [CBK283341] | 133.465
O=C(O)CCn1cc(CN2CCOc3ccccc3C2)cn1 [CBK306507] | 145.513
Cc1onc(-c2ccccc2)c1C(=O)Nc1ccccc1N1CCCNCC1 [CBK038929T] | 133.816
COc1ccc(C2c3cc(OC)c(OC)cc3CC(=O)N2c2ccc(C(=O)O)cc2)cc1OC (stereo not shown) [CBK296082] | 145.541
c1ccc2c(c1)nnn2Cc1nnc2sc(-c3cnccn3)nn12 [CBK268393] | 139.432
COc1ccc(S(=O)(=O)N2CCC(C(=O)Nc3ccccc3SC)CC2)cc1C [CBK267960] | 114.175
CC(=O)c1cccc(-c2ccc3c(c2)C(=O)NC2(CCN(C(=O)OC(C)(C)C)CC2)O3)c1 [CBK131969] | 96.305
CN1CCN(c2ccc(/C=c3\sc4nc5ccccc5n4c3=O)cc2[N+](=O)[O-])CC1 [CBK263048] | 103.487
N#Cc1ccc(Oc2ccc3c(c2)-c2cc(Oc4ccc(C#N)c(C#N)c4)ccc2S3(=O)=O)cc1C#N [CBK261151] | 107.169
CCC(=O)OC1(C(=O)c2ccc(F)cc2)CCN(CCCC(c2ccc(F)cc2)c2ccc(F)cc2)CC1 [CBK025227C] | 101.367
O=C1c2ccccc2CN1c1nccs1 [CBK113184] | 114.464
c1ncc(OC2CCNC2)nc1OCCN1CCOCC1 (stereo not shown) [CBK077311T] | 162.992
O=S(=O)(Nc1cccc2[nH]ccc12)c1ccc(F)cc1F [CBK153546] | 126.434
COC(=O)c1cc(Cl)c2ccccc2n1 [CBK012428] | 121.357
CC(C)CNCC1CC(C(=O)N2CCC(Cc3ccccc3)CC2)=NO1 (stereo not shown) [CBK003718C] | 141.514
Cc1cc(NC(=O)c2ccc(S(=O)(=O)N3CCOCC3)cc2)nc2c1c(=O)oc1ccccc12 [CBK291134] | 103.735
O=C(Nc1ccccc1C(=O)O)c1cc(S(=O)(=O)Nc2cccc([N+](=O)[O-])c2)ccc1Cl [CBK263234] | 118.948
CCOC(=O)C1CCCN(c2c(C#N)cnc3ccc(Cl)cc23)C1 (stereo not shown) [CBK304405] | 146.367
O=C(NC(Sc1ncccn1)C(=O)c1ccccc1)c1ccccc1 (stereo not shown) [CBK025806] | 112.622

Part of the list above, as tab-separated lines:
Structure (SMILES)	% of control remaining [%]
O=C(O)c1cccc(-c2ccc(/C=C\c3nc(O)c([N+](=O)[O-])c(=O)[nH]3)o2)c1 [CBK267209]	84.138
COc1ccc(C2c3cc(OC)c(OC)cc3CC(=O)N2c2ccc(C(=O)O)cc2)cc1OC (stereo not shown) [CBK296082]	145.541
COc1ccc(S(=O)(=O)N2CCC(C(=O)Nc3ccccc3SC)CC2)cc1C [CBK267960]	114.175

— publication PMC12040169 (PLOS Biology, 2025)
